Source: PubChem BioAssay AID1508600 (Functional Genomics Laboratory (NCATS/FGL), 2020)
The whole screen tested about 53,000 sequences, of which about 3,700 (7%) were called active.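 The calls were made as follows: active = gene knockdowns whose robust z-score for IL-1 alpha signal is at least 2 or at most -2, so actives lie on both sides; inactive = the rest.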 The list shows a part of the results.

Assay: Components of the Cytosolic LPS Sensing Pathway: Gene Identification via Genome-wide siRNA Screen;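 also: robust z of the log signal after scaling to non-targeting control siRNA wells of the plate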
Conditions: RAW264.7 macrophages, IL-1a HTRF, actives lie on both sides, screened at 100 nM (by protocol), cells primed 5 h with Pam3CSK4 first
Outline: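 IL-1a HTRF of supernatants after 24 hour LipidA transfection of Pam3CSK4-primed (5 hours) RAW264.7 cells, 48h post-siRNA transfection (100 nM). Scores: percent of plate negative-control median, then log-based robust z-score.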
With GGAGAAGAGAAUAGAAGAATT against Ren1 the z-score was inactive: -0.0528.
In the case of GGAAAUGAUGUGUUUCAGUTT against Fmo5, the z-score is reported as inactive: 0.552.
For GGUAACCAUGAUGAUGACATT against Tmem38b, the z-score was active: -2.05.
With UCAUCUUACUCACAGUCUCTT against Tas2r118 the z-score was inactive: -1.62.
For GGAGCAAAGUGAUAAUUAUTT against Pcdhga8, the z-score was inactive: 0.639.
With GUUUUUAGGUUGAGAAACUTT against Vmn1r219 the z-score was inactive: 0.00542.
With GGACAACCAAGGAAGAAACTT against Fam205c the z-score was inactive: 0.816.
In the case of CCCAUCAUCUUCCCAUUCGTT against Olfr146, the z-score is reported as inactive: -0.204.
For GGGACUGGACCCAUACAAUTT against Cox5b, the z-score was active: 4.27.
For GGACAGAAAAACCUUCUAATT against Hexb, the z-score was inactive: -0.567.
In the case of GGCCACUGGGUUUUUCCUGTT against Golt1b, the z-score is reported as inactive: 0.751.
For GGAGAUGAUUUUGAACUUCTT against Retreg3, the z-score was active: 2.73.
With GGAUUGACAGUGUCAGUCUTT against Gnal the z-score was inactive: -0.408.
In the case of GGAAGUGAUGUACUUCCAATT against Qpctl, the z-score is reported as inactive: 0.327.
With GGUAUACCAAGAAGCUAAGTT against Kctd14 the z-score was inactive: -0.855.
With GGAAAAUGGUUGGUACUUUTT against Vwc2 the z-score was inactive: 0.219.
For GGUUUUCCUGUUAUUUUCUTT against Mapre2, the z-score was inactive: 0.462.
In the case of GCCCUUCGAAUGUGUAAGGTT against Vwa5b2, the z-score is reported as inactive: -0.446.
For “GGUUUUACCCUGUAAUACUTT against 1700012B09Rik”, the z-score was inactive: 0.242.
With GGUACUGAUCAUGGAAUAUTT against Hibch the z-score was inactive: -1.97.
In the case of GGAGAUACAAUGUGAAAAGTT against Odf2, the z-score is reported as inactive: 0.418.
In the case of GGGUUGCUAAUGGAGAUGGTT against Slc12a1, the z-score is reported as inactive: -1.03.
With GGCUCCACCGACUUUGUCUTT against Pprc1 the z-score was inactive: -0.792.
For GGAUGAACUUUCCUAAGUUTT against Lrrc8b, the z-score was inactive: -0.0863.
With CCCUAUUGUCAAUAUUCUATT against Nr1h5 the z-score was inactive: 0.492.
In the case of GCACUUCGGAUGGUUCGAGTT against Elovl1, the z-score is reported as inactive: -0.404.
In the case of GCAUGUUUACCUCAAAGUGTT against Cd209e, the z-score is reported as inactive: 0.843.
For CGCAUUGGUAGCUUGGAUATT against Nmbr, the z-score was inactive: -0.192.
For GCAAGUGCGGAAGAAAGGATT against Afap1l2, the z-score was inactive: 0.0285.
With GGAAAGAGUGUGCAAACUCTT against Ly6d the z-score was inactive: 0.0731.
In the case of GCUAAGGAUUAGAAGGAAATT against Psme2, the z-score is reported as inactive: -0.997.
For GGACUUUGACAGCUUAGGATT against Acot10, the z-score was inactive: -0.446.
With GGCCAGUCAAUUCUUGCUUTT against Itpripl2 the z-score was inactive: 0.355.
For GGUGAAGACGUGGUAUCAATT against Barx1, the z-score was inactive: -1.06.
For GGCUCAUGGUUAUUGUAAUTT against Olfr1198, the z-score was inactive: -0.385.
For GGGAAGAUUGAUUUUAUCGTT against Abcb11, the z-score was active: 2.31.
In the case of GGCUUGAAUAUUAAAGUGATT against Arhgef19, the z-score is reported as inactive: -0.505.
In the case of GGAAAUGAUACAUUUGUGATT against Mre11a, the z-score is reported as inactive: -0.256.
In the case of “GGUAAUAAACAGACAUAGATT against 2410141K09Rik”, the z-score is reported as inactive: 1.2.
With GGUGAAAUAUGAGGAGUUUTT against Calm4 the z-score was inactive: -0.079.
With CCUCGAUAUGAGUUUUUGATT against Mrfap1 the z-score was inactive: -0.288.
In the case of GCUAUAUCGCUAUGGACACTT against Cnot8, the z-score is reported as inactive: 0.954.
In the case of GCAUCUUUGUGAAUGUUUATT against Slc7a3, the z-score is reported as inactive: -0.462.
In the case of GGAUCUGCUGAAUAAGUGCTT against Fam216a, the z-score is reported as inactive: -1.43.
With GGCCAGGAGAUUCCUAUGATT against Shisa4 the z-score was inactive: -0.304.
In the case of GGCAGCAAGUUUUUUAAUCTT against Cap1, the z-score is reported as inactive: 0.464.
For GCCACUCUAUGUGAACACATT against Hmgxb4, the z-score was inactive: -0.648.
With GGUUCAAUAAAAAUGCUUCTT against Ngp the z-score was inactive: 1.37.
With GGAAAAUUGGCCAAAAUAATT against Pdcl the z-score was inactive: -0.0308.
With GGACGUGCUACAUUUGAAATT against Zfp870 the z-score was inactive: -0.961.
In the case of CCCUUUAUGAUAGGUUUUATT against Vmn1r85, the z-score is reported as inactive: 1.79.
With GCAAGAUUCAGAGUGCAGCTT against Txlng the z-score was inactive: -1.09.
With GCAACGGAGCGGAAAAGAATT against Kif26b the z-score was inactive: -1.2.
With CGCAAGAUCCUCAAACGAGTT against Proc the z-score was inactive: -0.358.
